Laboratory results published in PubChem BioAssay (NCATS).
Where “and” joins values, the source holds several entries; their conditions need not be identical. Equal values may be shown once. The inconclusive results got no clear call from the source; some entries with a clear call stand among them for comparison. For part of these data: Where the call is inconclusive, the potency comes from a doubtful curve fit. Calls of active or inactive are those of the source. Unless noted, calls come from the whole dose curve; as a rule, active = well fitted curve in the direction sought with a large enough effect; inconclusive = small, poorly fitted or top-dose-only effect, or another doubt; inactive = no such curve, though single readings can be large; an effect the other way counts as inactive or inconclusive.

Experiments:
[1] = Cytotoxicity counterscreen for NFkB agonists and antagonists (AID 624476)
[2] = qHTS of pediatric cancer cell lines to identify multiple opportunities for drug repurposing: Primary screen for TC32 cells (AID 1347089); note: nearly all actives have a fitted effect of over 60% in size
In short: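 In the primary qHTS, MIPE compounds were tested at 11 concentrations (0.78 nM to 46 µM) and NPC compounds at 8 (0.59 nM to 46 µM) on TC32 cells for 48 h. CellTiter-Glo luminescence gave viability.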

[3] = qHTS of pediatric cancer cell lines to identify multiple opportunities for drug repurposing: Primary screen for SJ-GBM2 cells (AID 1347091)
In short: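 Eight- or eleven-point concentration series, 48 h treatment at 37 degrees C in growth media; readout CellTiter-Glo luminescence. Potency and efficacy were taken from the concentration-response curves.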

[4] = qHTS of pediatric cancer cell lines to identify multiple opportunities for drug repurposing: Primary screen for NB-EBc1 cells (AID 1347095)
In short: (§1)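 Viability was measured as metabolically active cells after 48 hours of treatment, read by CellTiter-Glo luminescence. Compounds were tested at multiple final concentrations, giving concentration-response curves.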

[5] = qHTS of pediatric cancer cell lines to identify multiple opportunities for drug repurposing: Primary screen for SK-N-SH cells (AID 1347098); settings: SK-N-SH viability, CellTiter-Glo luminescence, 48 h; activity change, negative = cytotoxic: at 57 µM (top of the series); note: nearly all actives have a fitted effect of over 65% in size
In short: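 Cells (500-1,000/well) rested 5 h, then received compounds for 48 h; metabolically active cells were measured by CellTiter-Glo luminescence. Final concentrations spanned up to 46 µM (MIPE, 11-point) or 0.59 nM-46 µM (NPC, 8-point) in primary screens, 11-point in follow-ups.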

[6] = qHTS of pediatric cancer cell lines to identify multiple opportunities for drug repurposing: Primary screen for NB1643 cells (AID 1347099); note: nearly all actives have a fitted effect of over 50% in size
In short: as §1

[7] = qHTS of pediatric cancer cell lines to identify multiple opportunities for drug repurposing: Primary screen for MG 63 (6-TG R) cells (AID 1347105); settings: MG 63 (6-TG R) viability, CellTiter-Glo, 48 h; activity change, negative = cytotoxic: at 46 µM (top of the series) unless noted; note: nearly all actives have a fitted effect of over 50% in size
In short: as §1

[8] = qHTS to identify inhibitors of the type 1 interferon - major histocompatibility complex class I in skeletal muscle: primary screen against the NCATS Mechanism Interrogation Plate v5.0 (MIPE) Libary (AID 1347411); settings: iHSKM cells + IFN-b, HiBiT-tagged MHC-I luminescence, 24 h; series mostly up to 45.8 µM; note: nearly all actives have a fitted effect of over 65% in size
In short: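 Luminescence from CRISPR HiBit-tagged endogenous HLA-B in human myoblasts reported MHC class I level after 24 h of IFN-beta (4 ng/ml) plus compound. Compounds ran as 11-point 1:3 series, top 46 uM final.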

MCC-26 = test: qHTS assay to identify novel small-molecules to repurpose for Merkel cell carcinoma treatment (AID 1296009); settings: MCC and control cell lines, CellTiter-Glo viability, 72 h; series mostly up to 46 µM; note: nearly all actives have a fitted effect of over 60% in size
In short: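 Viability readout: ATP luminescence (CellTiter-Glo) after 72 hr drug exposure at 37 degree celsius. Dose-response format was 8 points for NPC and 11 points for MIPE; data normalized to in-plate controls.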

[9] = qHTS of pediatric cancer cell lines to identify multiple opportunities for drug repurposing: Primary screen for Saos-2 cells (AID 1347097); settings: Saos-2 viability, CellTiter-Glo ATP luminescence, 48 h; activity change, negative = cytotoxic: at 46 µM (top of the series); note: nearly all actives have a fitted effect of over 40% in size
In short: as §1

[10] = Primary qHTS for inhibitors of nuclear receptor binding SET domain protein 2 (NSD2) in an isogenic RCH-ACV NSD2 p.E1099K mutant (9B) (AID 1645876); note: nearly all actives have a fitted effect of over 70% in size
[11] = Quantitative High-Throughput drug screen in 47 multiple myeloma cell lines against the NCATS MIPE library collection: H1112_PLB cell viability assay (AID 1918967; note: nearly all actives have a fitted effect of over 30% in size)
In short: (§2)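 Steps: seed 500 cells per well; pin-transfer MIPE 4.0 library; incubate 48 h at 37C, 5% CO2, humidified; add CellTiter-Glo, 5 min room temperature; read luminescence.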

[12] = Quantitative High-Throughput drug screen in 47 multiple myeloma cell lines against the NCATS MIPE library collection: KMS27_JCRB cell viability assay (AID 1918970); settings: KMS27 myeloma cells, CellTiter-Glo ATP viability, 48 h; viability (% of DMSO): at 45.8 µM (top of the series); note: nearly all actives have a fitted effect of over 30% in size
In short: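 CellTiter-Glo luminescence after 48 h drug exposure at 37 °C; 500 cells/well, 1536-well format, pin-tool compound addition; DMSO = 100%, media-only = 0% viability.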

[13] = Quantitative High-Throughput drug screen in 47 multiple myeloma cell lines against the NCATS MIPE library collection: MMM1_PLB cell viability assay (AID 1918976); note: nearly all actives have a fitted effect of over 35% in size
In short: (§3)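 qHTS format: cells plated (500/well), pin-dosed with MIPE 4.0 compounds, kept 48 h at 37 °C. Readout was CellTiter-Glo luminescence, median RLU.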

[14] = Quantitative High-Throughput drug screen in 47 multiple myeloma cell lines against the NCATS MIPE library collection: OCIMY7_PLB cell viability assay (AID 1918987); settings: OCI-MY7 myeloma viability, CellTiter-Glo ATP, 48 h; viability (% of DMSO): at 45.8 µM (top of the series); note: nearly all actives have a fitted effect of over 65% in size
In short: as §3

[15] = Quantitative High-Throughput drug screen in 47 multiple myeloma cell lines against the NCATS MIPE library collection: OPM2_DSMZ cell viability assay (AID 1919872); note: nearly all actives have a fitted effect of over 30% in size
In short: as §2

[16] = Quantitative High-Throughput drug screen in 47 multiple myeloma cell lines against the NCATS MIPE library collection: KMS28BM_JCRB cell viability assay (AID 1919874); note: nearly all actives have a fitted effect of over 35% in size
In short: as §3

[17] = qHTS for identification of novel therapeutic agents for treatment of microphthalmiaassociated transcription factor (MiT) renal cell carcinoma (RCC) (AID 1963991; calls by dose curve); settings: TFE3-RCC UOK109 viability, CellTiter-Glo, 48 h; active = Z-AUC below -0.8 in all three lines
In short: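 Curves over 11 concentrations were fitted to CellTiter-Glo luminescence, scaled between empty wells (0%) and DMSO (100%) viability. Cells were UOK109, UOK124 and UOK145 TFE3-fusion RCC lines at 500/well, exposed 48 hours at 37 C.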

[18] = qHTS of pediatric cancer cell lines to identify multiple opportunities for drug repurposing: Primary screen for control Hh wild type fibroblast cells (AID 1347106); note: nearly all actives have a fitted effect of over 55% in size
In short: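 Cells (500-1,000/well) in growth media were settled 5 h at 37 degrees C, then given compounds for 48 h. Viability was read as CellTiter-Glo luminescence. Primary runs used MIPE at 11 points (0.78 nM-46 µM) and NPC at 8 points (0.59 nM-46 µM); follow-ups used 11 points.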

[19] = qHTS Assay for Identification of Small Molecule Antagonists for NFkB Signaling Pathway. (AID 624479; calls by dose curve;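 note: pathway stimulated with TNF alpha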)

Measured: Potency
Potency is the fitted concentration of half-maximal effect.

CC1=C(/C=C/C(C)=C/C=C/C(C)=C/C(=O)Nc2ccc(O)cc2)C(C)(C)CCC1
active: [1] 20.9 µM
inconclusive: [2] 26.4 µM [cytotoxic, single point] | [3] 33.5 µM [cytotoxic, single point] | [4] 33.5 µM [cytotoxic, single point] | [5] 15.4 µM [cytotoxic, partial curve, poor fit] | [6] 33.5 µM [cytotoxic, single point] | [7] 33.5 µM [cytotoxic, single point] | [8] 33 µM [inhibitor, single point] | MCC-26 = 23.7 µM [inhibitor, single point]

C[C@H](NC(=O)Cc1cc(F)cc(F)c1)C(=O)N[C@@H]1C(=O)N(C)c2ccccc2-c2ccccc21
inconclusive: [9] 16.6 µM [cytotoxic, partial curve] | [8] 16.5 µM [inhibitor, partial curve] | [12] 2.96 µM [cytotoxic, full curve, poor fit] | [13] 1.87 µM [rising, partial curve] | [14] 5.26 µM [cytotoxic, partial curve, poor fit] | [15] 7.4 nM [rising, full curve, poor fit] | [16] 16.6 µM [cytotoxic, partial curve, poor fit] | [17] 5.9 µM [falling, full curve]
inactive: [10]
active: [5] 12.1 µM | [11] 5.9 µM

O=C(c1ccc(Nc2nccc(-c3cc4ccccc4s3)n2)cc1)N1CCC(N2CCCC2)CC1
active: [4] 23.5 µM | [5] 19.2 µM | [6] 11.8 µM | [7] 18.7 µM | [8] 5.23 µM | [14] 2.35 µM
inconclusive: [1] 29.6 µM [inhibitor, single point] | [2] 26.2 µM [cytotoxic, single point] | [18] 33.2 µM [cytotoxic, single point] | [17] 14.8 µM [falling, partial curve] | MCC-26 = 37.2 µM [inhibitor, single point]

CCC[C@H](NC(=O)C(C#N)=Cc1cccc(Br)n1)c1ccccc1
active: [4] 8.33 µM | [9] 33.2 µM | [13] 2.96 µM | [15] 5260 nM
inconclusive: [7] 23.5 µM [cytotoxic, single point] | MCC-26 = 29.6 µM [inhibitor, single point]

NC(=O)c1ccc(-c2nc(-c3ccc4c(c3)OCO4)c(-c3ccccn3)[nH]2)cc1
inconclusive: [10] 18.4 µM [inhibitor, partial curve, poor fit] | [13] 20.9 µM [cytotoxic, partial curve, poor fit] | [14] 0.003 µM [rising, full curve, poor fit] | [15] 29600 nM [cytotoxic, single point]
inactive: [1] | [11] | [12] | [16]

Cc1c(CCOc2ccc(C(=O)O)cc2)c2cc(Cl)ccc2n1C(c1ccccc1)c1ccccc1
inconclusive: [1] 26.4 µM [inhibitor, single point] | [19] 29.8 µM [inhibitor, single point] | [4] 33.2 µM [cytotoxic, partial curve, poor fit] | [6] 16.6 µM [cytotoxic, partial curve] | [12] 9.35 µM [cytotoxic, single point] | [15] 1.2 nM [cytotoxic, full curve, poor fit] | [16] 16.6 µM [cytotoxic, partial curve, poor fit] | [17] 20.9 µM [falling, single point]
inactive: [3] | [8] | [11] | [14]

COc1cccc2cc(-c3nc(C4CCC(C(=O)O)CC4)n4ncnc(N)c34)[nH]c12 (stereo unspecified)
inconclusive: [2] 0.165 µM [cytotoxic, full curve, poor fit] | [9] 0.372 µM [cytotoxic, full curve] | [7] 0.0372 µM [cytotoxic, full curve] | [18] 0.296 µM [cytotoxic, full curve] | [8] 1.86 µM [inhibitor, full curve] | [12] 0.0833 µM [cytotoxic, full curve]
active: [3] 0.935 µM | [10] 5.9 µM and 731 nM | [16] 1.48 µM
